Test system: α-PVP antibody
Assay: α-PVP/MDPV ELISA kit validation assay (Example 11)
Type: binding
Details: N = 20, samples diluted 1:50
Experimental: A microtitre plate was precoated with α-PVP antibody. α-PVP (antigen), if present in the sample competes with the horseradish peroxidase labelled α-PVP (enzyme labelled antigen) for a limited number of antibody sites on the microtitre plate. After incubation at room temperature to allow a competition reaction to take place, the microtitre plate was washed to remove excess reagents. The enzyme substrate was added. After an incubation period to allow maximum colour development, the colour reaction was stopped by the addition of acid. This produces a colour change from blue to yellow, and the absorbances are read at 450 nm. […]
b) The microtitre plate was gently tapped from side to side for a few seconds. c) The microtitre plate was covered with a plate sealer before incubating for 30 minutes at room temperature (+15° C. to +25° C.) in the dark. d) The plate was inverted and the liquid tapped out liquid. e) The plate was washed 6 times with diluted wash buffer (ensuring all wells were filled), over a 10-15 minute period. […] A colour change from blue to yellow resulted. h) The optical density was measured at 450 nm within 10 minutes of stopping the colour reaction. […]
Equally, pyrrolidinopentiothiophenone and mdpbp were assessed in the same run; and mdppp and α-pyrrolidinopropiophenone were assessed in the same run. […]

For `CCCC(C(=O)c1ccccc1)N1CCCC1` (stereo not drawn) [α-PVP, α-Pyrrolidinovalerophenone], the “limit of detection - Urine” value (urine) was 3.1 ng/mL and the “limit of detection - Whole Blood” value (whole blood) was 1.8 ng/mL.
